This is an account of results in paper PMC5338925.

Chains of the proteins cited; added tags and fusions are not shown. Lines headed by an entry give the natural chain unless they say otherwise; changes in a name come on top. A line that says so, or that is headed by a name, gives the form on record, which may keep a tag or linker.
GFP-Nup98^1–920 (P52948, form named): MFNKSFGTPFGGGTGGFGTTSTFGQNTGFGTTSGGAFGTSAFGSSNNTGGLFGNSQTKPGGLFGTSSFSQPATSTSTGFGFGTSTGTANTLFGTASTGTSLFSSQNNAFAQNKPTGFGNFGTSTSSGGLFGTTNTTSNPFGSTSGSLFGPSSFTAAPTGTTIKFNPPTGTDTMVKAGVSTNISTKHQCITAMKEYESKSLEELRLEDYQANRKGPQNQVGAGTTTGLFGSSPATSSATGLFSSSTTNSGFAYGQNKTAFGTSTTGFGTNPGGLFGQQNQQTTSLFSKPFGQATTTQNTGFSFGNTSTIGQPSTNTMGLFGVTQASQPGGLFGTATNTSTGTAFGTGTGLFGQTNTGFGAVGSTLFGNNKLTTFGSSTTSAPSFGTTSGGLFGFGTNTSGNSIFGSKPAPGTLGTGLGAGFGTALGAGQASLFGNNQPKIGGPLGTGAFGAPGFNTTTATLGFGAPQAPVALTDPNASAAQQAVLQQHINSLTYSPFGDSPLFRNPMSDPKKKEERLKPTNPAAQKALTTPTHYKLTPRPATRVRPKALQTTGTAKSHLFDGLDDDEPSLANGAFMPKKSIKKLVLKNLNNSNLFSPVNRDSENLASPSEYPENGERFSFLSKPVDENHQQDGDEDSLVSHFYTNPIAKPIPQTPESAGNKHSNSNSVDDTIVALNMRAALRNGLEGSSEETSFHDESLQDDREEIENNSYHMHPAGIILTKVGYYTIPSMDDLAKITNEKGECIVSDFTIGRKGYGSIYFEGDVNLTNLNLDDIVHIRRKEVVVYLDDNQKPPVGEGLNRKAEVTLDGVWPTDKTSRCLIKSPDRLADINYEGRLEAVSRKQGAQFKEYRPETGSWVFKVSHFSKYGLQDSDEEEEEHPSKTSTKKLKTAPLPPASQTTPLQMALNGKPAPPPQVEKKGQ

This test deals with GFP-Nup98^1–920 (human) (UniProt P52948). Nature of the test: affinity purification with mass spectrometry; GFP-Nup98 immunoprecipitated with anti-GFP on Protein G Dynabeads from HEK293T whole cell lysate (NP-40 cell lysis buffer, 250 mM NaCl, pH 7.4); SDS-PAGE, in-gel digestion, LC-MS/MS.

No constants are given. Whether binding was seen depends on the method and setting. In cells and extracts the contact can be indirect. These calls come from enrichment with a bait or labelling near it, and not all partners need be listed.

B1: Rae1 (protein, UniProt P78406 1-368)
chain: MSLFGTTSGFGTSGTSMFGSATTDNHNPMKDIEVTSSPDDSIGCLSFSPPTLPGNFLIAGSWANDVRCWEVQDSGQTIPKAQQMHTGPVLDVCWSDDGSKVFTASCDKTAKMWDLSSNQAIQIAQHDAPVKTIHWIKAPNYSCVMTGSWDKTLKFWDTRSSNPMMVLQLPERCYCADVIYPMAVVATAERGLIVYQLENQPSEFRRIESPLKHQHRCVAIFKDKQNKPTGFALGSIEGRVAIHYINPPNPAKDNFTFKCHRSNGTNTSAPQDIYAVNGIAFHPVHGTLATVGSDGRFSFWDKDARTKLKTSEQLDQPISACCFNHNGNIFAYASSYDWSKGHEFYNPQKKNYIFLRNAAEELKPRNKK
For B1, the binding result was “binds”.
